The other results are listed elsewhere or left out. For some of these results: At the low end of the ranking the order means little.
How the values were obtained:
Conditions in all cases: 10 mM Tris-Cl pH 7.5, 50 mM NaCl, 1 mM DTT, 0.25 mg/ml BSA, 2 mM MgCl2, 0.025% Nonidet P-40, 5% glycerol; 28 nM nucleosome library; 10 min on ice then 30 min …; high values mean tight binding; double strand, one strand shown
[1] = system: KLF4 + histone octamer; assay: EMSA with sequencing
[2] = system: SOX2 + histone octamer; assay: EMSA with sequencing
[3] = system: OCT4 + histone octamer; assay: Pioneer-seq (competitive nucleosome EMSA with sequencing)
[4] = system: c-MYC + MAX + histone octamer; assay: as above
[5] = system: c-MYC + MAX + histone octamer; assay: EMSA with sequencing

Sequence	binding signal (log2 relative supershift) [1]	binding signal (log2 relative supershift) [2]	binding signal (log2 relative supershift) [3]	binding signal (log2 relative supershift) [4]	binding signal (log2 relative supershift) [5]
GATGGACCCTATACGCGGCAACCAGGGGGAGGGCATGGCACTTCCCAAGGCTATGCACCTGAATATGGGGTGTGTGTGTATGTGTGTGTGTGTGTGTGCACAGCTCAAGGCAATTCCACCCACAATTCAAGGAATATGGAGGCTGACAGACAAAGCTTGGATTTCAGATGTAAATAAAACTAGAGTTAATAAAAATGTTTACTGCAGTGCTGCCAGTCGGATAGTGTTCC	0.874	0.348	-0.216	-0.0269	
GATGGACCCTATACGCGGCAAAATCTGGGTGTGGAAGAACTGTTGAACAATAGGTTAGCTCTATGTTCTACAACAGACTGTCTCTCAAATGCAGAGTTCTGTGTGTTTATTGACTACTAGCGTCAGCTTCTGTGCAGCTGAGATACAAATTCAGCCCTAGGCTTTTATCCACAGATCTGAGAGGAGGAAGGCAGGCAGGCACCTGTAATTTGCCAGTCGGATAGTGTTCC	2.61	1.21	-0.258	-0.117	
GATGGACCCTATACGCGGCCCTGGAGAATCTCTGACCCTCCCCACAAGTGTTTACATCAGATGCTTTTGTAAACATGAAGGAACCTTCCCAGGGCCTTGTCTGGGCTTGCCCACAATGTACTGGAGGCCCGCCTGTGCACTGGGAGAATGGGGTGGAGCCACTGGGATTTGCGCCTTATGCAGAGGGGAGGAGCCTGGCCTCTTCAGCTCTGCCAGTCGGATAGTGTTCC	2.6	0.147	-0.31	-0.512	
GATGGACCCTATACGCGGCACACATGCACATTCATGCAAACACACACATACACATGCATGCACACACATGCAAACGTGCATGCATACACTTGTGCCAGCGTACCCACATGCACACACCTCCACACGCTCACTCATACATTCACACAATACACATGCACATGTATGCACATCCCCACCCATATGGACCCTGATTTCATGTGCTCACGCGCCTGCCAGTCGGATAGTGTTCC	2.02	0.0124	-0.0214		1.51
